Assay: Transmittance to visible light of diluted chloroform solution
Assay type: physicochemical
Conditions: chloroform solution diluted to minimum transmittance 5–6% at >920 to 1050 nm, 1-cm quartz cell, JIS R3106

Row | Substance | Transmittance to visible light (%)
1 | VOPc(PhS)8{2,6-(CH3)2PhO}4{(CH3)2CHO(CH2)3NH}4 [Example 9] | 78%
2 | VOPc(PhS)8{2,6-(CH3)2PhO}4{CH3(CH2)5NH}4 [Example 15] | 80%
3 | VOPc(PhS}8{2,6-(CH3)2PhO}4[{CH3(CH2)2CH}2NCH2CH2NH]4 [Example 4] | 76%
4 | VOPc(PhS)8{2,6-(CH3)2PhO}4{CH3(CH2)3CH(C2H5)CH2O(CH2)3NH}4 [Example 11] | 75%
5 | VOPc(PhS)8{2,6-(CH3)2PhO}4{(C2H5)2NCH2CH2NH}4 [Example 1] | 78%
6 | VOPc{4-(CH3O)PhS}8{2,6-(CH3)2PhO}4{CH3(CH2)3CH(C2H5)CH2NH}4 [Example 17] | 80%
7 | VOPc(PhS)8{2,6-(CH3)2PhO}4{CH3(CH2)3O(CH2)3NH}4 [Example 10] | 77%
8 | VOPc(PhS)8{2,6-(CH3)2PhO}4{CH3(CH2)17NH}4 [Example 19] | 78%
9 | VOPc{2-(CH3O)PhS}8{2,6-(CH3)2PhO}4{(C2H5)2NCH2CH2NH}4 [Example 2] | 77%
10 | VOPc(PhS)8{2,6-(CH3)2PhO}4{CH3(CH2)3CH(C2H5)CH2NH}4 [Example 16] | 79%
11 | VOPc(PhS)8{2,6-(CH3)2PhO}4[{(CH3)2CH}2NCH2CH2NH]4 [Example 3] | 76%
12 | VOPc(PhS)8{2,6-(CH3)2PhO}4{CH3(CH2)7NH}4 [Example 18] | 79%
13 | VOPc(PhS)8{2,6-(CH3)2PhO}4{(CH3CH2O(CH2)3NH}4 [Example 8] | 76%
